From publication doi:10.1101/2023.10.03.560691

Legend:
[1] = target: Phage λ Orf63, 6xHis-Flag affinity tagged (phage λ); assay: NMR titration
[2] = target: Orf63 part of the hybrid Orf63 protein (phage λ); assay: 1H-15N HSQC comparison of a fused hybrid with free Orf63

Binder	binding [1]	binding [2]
GGLVPRGSGDTKELILAIARKVKEMIKNS (designed binder) [6xHis-tagged ubiquitin fusion protein with the designed Orf63 binding peptide]	binds	
DTKELILAIARKVKEMIKNS (designed binder) [designed α-helix (20-mer) as appended to the C-terminus of Orf63 in the hybrid Orf63 protein]		binds
GGLVPRGSGMAIAHAATEYVFADFVLK [6xHis-tagged ubiquitin fusion protein with an unrelated peptide]	no binding (tested: 2:1 mixture)	

These are yes or no findings as the source states them, for the method shown. Binding calls can cover weak binding; strength is not graded here. For part of these data: Sequences can lack the tags named with a protein.
